Results published in publication PMC8062265.
These are yes or no findings as the source states them, for the method shown. Binding seen in cells or lysates may run through a third protein. For some of these results: Binding can be weak; no strength is given. For some of these results: Where a sequence is shown, tags or fusion partners need not be part of it. Blank lines part the entries; values can stand above or below the molecule they belong to.

Key:
[1] = biological target: T1, transmembrane and coiled-coil domain family 3 (TMCC3), endogenous in AS-B634 (human (endogenous in AS-B634)) (UniProt Q9ULS5); experiment: co-IP; endogenous TMCC3 precipitated from AS-B634 with anti-TMCC3 antibody; AKT detected in the immunoprecipitate
T1 sequence: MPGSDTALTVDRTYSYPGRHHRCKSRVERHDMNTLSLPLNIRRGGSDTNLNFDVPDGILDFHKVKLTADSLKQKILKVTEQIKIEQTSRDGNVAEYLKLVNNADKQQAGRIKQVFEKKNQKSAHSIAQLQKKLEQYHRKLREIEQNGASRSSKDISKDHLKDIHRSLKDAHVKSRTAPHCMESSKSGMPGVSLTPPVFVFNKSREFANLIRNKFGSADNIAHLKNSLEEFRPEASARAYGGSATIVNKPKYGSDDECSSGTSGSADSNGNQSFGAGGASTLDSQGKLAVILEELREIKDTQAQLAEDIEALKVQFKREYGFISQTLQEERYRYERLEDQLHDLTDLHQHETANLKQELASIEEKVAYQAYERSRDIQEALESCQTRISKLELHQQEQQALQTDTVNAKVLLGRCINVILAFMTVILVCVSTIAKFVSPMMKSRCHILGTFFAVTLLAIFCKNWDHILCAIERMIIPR

[2] = biological target: T2, flag-tagged full-length (1-477) TMCC3, in 293T (human) (UniProt Q9ULS5); experiment: co-IP; 293T cells co-transfected with flag-tagged TMCC3 (full-length or truncated) and HA-tagged AKT; anti-flag precipitation, blot with anti-HA antibody
T2 sequence: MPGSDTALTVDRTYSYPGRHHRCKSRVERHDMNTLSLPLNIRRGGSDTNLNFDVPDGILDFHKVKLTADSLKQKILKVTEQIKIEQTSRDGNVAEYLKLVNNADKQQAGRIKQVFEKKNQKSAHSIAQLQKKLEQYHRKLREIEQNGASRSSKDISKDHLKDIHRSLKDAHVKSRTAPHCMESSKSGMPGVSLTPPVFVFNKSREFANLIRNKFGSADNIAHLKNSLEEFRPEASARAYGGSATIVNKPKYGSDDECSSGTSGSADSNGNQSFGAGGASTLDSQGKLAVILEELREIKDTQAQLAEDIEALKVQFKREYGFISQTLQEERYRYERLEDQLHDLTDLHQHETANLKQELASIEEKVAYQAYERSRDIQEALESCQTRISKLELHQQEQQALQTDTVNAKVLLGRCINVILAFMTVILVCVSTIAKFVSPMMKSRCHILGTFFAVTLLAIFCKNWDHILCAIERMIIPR

[3] = biological target: T3, flag-tagged 1-153 a.a. domain of TMCC3 (human) (UniProt Q9ULS5); experiment: as above
T3 sequence: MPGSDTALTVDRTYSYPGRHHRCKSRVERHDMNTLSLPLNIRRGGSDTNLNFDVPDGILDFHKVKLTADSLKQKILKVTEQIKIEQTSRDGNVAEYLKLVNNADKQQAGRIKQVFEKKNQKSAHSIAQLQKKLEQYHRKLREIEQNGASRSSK

[4] = biological target: T4, flag-tagged 283-416 a.a. domain of TMCC3 (human) (UniProt Q9ULS5); experiment: as above
T4 sequence: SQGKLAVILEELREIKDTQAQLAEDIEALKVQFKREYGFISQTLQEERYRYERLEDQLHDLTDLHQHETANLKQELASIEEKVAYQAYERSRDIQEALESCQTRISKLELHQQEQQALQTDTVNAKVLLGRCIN

[5] = biological target: T5, flag-tagged 1-282 a.a. domain of TMCC3 (human) (UniProt Q9ULS5); experiment: as above
T5 sequence: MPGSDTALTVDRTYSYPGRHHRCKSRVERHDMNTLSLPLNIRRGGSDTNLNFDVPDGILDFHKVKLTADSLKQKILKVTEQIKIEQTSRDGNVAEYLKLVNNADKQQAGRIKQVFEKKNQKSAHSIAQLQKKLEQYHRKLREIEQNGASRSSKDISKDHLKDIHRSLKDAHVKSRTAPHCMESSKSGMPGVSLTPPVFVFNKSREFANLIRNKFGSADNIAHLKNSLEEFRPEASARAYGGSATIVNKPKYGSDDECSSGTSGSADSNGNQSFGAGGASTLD

[6] = biological target: T6, flag-tagged full-length (FL)-TMCC3, in MDA-MB231 (human) (UniProt Q9ULS5); experiment: co-IP; MDA-MB231 cells transfected with flag-tagged FL-TMCC3 and HA-tagged AKT; precipitation with anti-flag or anti-HA antibody, then immunoblotting
T6 sequence: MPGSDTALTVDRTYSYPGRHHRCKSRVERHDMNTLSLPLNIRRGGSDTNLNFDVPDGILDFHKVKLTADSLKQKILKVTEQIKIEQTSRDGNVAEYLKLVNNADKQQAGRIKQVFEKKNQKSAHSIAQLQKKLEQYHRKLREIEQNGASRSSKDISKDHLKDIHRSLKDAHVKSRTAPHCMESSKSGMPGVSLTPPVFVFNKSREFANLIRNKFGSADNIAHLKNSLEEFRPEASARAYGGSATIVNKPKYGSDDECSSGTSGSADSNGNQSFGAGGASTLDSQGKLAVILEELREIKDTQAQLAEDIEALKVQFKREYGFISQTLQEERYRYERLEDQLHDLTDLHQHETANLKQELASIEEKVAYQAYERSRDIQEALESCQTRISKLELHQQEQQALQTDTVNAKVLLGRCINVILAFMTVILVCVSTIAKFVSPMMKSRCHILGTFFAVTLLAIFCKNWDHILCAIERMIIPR

[7] = biological target: HA-tagged AKT, in MDA-MB231; experiment: as above

binding [1]: binds
Molecule: AKT, endogenous in AS-B634 (human (endogenous in AS-B634))

binding [2]: binds
binding [3]: binds
binding [4]: no binding
binding [5]: binds
Molecule: HA-tagged AKT, in 293T

binding [6]: binds
Molecule: HA-tagged AKT, in MDA-MB231

binding [7]: binds
B1: flag-tagged full-length (FL)-TMCC3, in MDA-MB231 (protein, UniProt Q9ULS5 1-477)
chain: MPGSDTALTVDRTYSYPGRHHRCKSRVERHDMNTLSLPLNIRRGGSDTNLNFDVPDGILDFHKVKLTADSLKQKILKVTEQIKIEQTSRDGNVAEYLKLVNNADKQQAGRIKQVFEKKNQKSAHSIAQLQKKLEQYHRKLREIEQNGASRSSKDISKDHLKDIHRSLKDAHVKSRTAPHCMESSKSGMPGVSLTPPVFVFNKSREFANLIRNKFGSADNIAHLKNSLEEFRPEASARAYGGSATIVNKPKYGSDDECSSGTSGSADSNGNQSFGAGGASTLDSQGKLAVILEELREIKDTQAQLAEDIEALKVQFKREYGFISQTLQEERYRYERLEDQLHDLTDLHQHETANLKQELASIEEKVAYQAYERSRDIQEALESCQTRISKLELHQQEQQALQTDTVNAKVLLGRCINVILAFMTVILVCVSTIAKFVSPMMKSRCHILGTFFAVTLLAIFCKNWDHILCAIERMIIPR
